Source: article PMC10153392
These are yes or no findings as the source states them, for the method shown. Some binding calls cover weakened binding; strength is not graded here. Where a sequence is shown, tags or fusion partners need not be part of it.

Chains of the proteins cited; added tags and fusions are not shown.
UniProt P04419: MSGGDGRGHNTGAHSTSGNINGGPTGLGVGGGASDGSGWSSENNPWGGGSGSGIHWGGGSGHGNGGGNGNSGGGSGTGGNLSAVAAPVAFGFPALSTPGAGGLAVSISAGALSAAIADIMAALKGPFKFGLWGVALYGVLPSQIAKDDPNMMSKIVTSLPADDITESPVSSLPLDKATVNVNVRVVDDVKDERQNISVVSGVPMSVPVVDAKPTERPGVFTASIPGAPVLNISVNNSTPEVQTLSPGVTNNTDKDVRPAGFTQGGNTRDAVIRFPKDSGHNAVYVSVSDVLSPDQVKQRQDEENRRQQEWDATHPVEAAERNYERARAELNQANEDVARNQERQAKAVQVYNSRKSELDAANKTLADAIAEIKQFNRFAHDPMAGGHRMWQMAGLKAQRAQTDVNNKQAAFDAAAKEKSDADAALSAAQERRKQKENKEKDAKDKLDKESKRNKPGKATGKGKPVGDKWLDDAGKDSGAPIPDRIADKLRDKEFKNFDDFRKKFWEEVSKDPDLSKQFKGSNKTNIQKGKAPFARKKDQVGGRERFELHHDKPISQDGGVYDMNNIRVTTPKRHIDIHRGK

Target: T1, Immunity protein Im2, wild type, C-terminal His6-tag (E. coli (the paper calls E. coli the native host)) (UniProt P04482)
T1 sequence: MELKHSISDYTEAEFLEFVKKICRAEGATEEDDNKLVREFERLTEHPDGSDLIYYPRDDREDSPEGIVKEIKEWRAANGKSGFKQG
Assay: co-purification on Ni-NTA; ColE co-expressed with Im (C-terminal His6-tag) in E. coli BL21 (DE3); supernatant bound to Ni-NTA beads 1 hr at 4 °C, washed with 20 mM imidazole, eluted with 500 mM imidazole; 50 mM Tris pH 8.6, 50 mM NaCl, 2 mM MgCl2

With “Colicin E2 (ColE2), wild type (from UniProt P04419 1-581)” the binding was “binds”.
